Binding data for one molecule are collected here from EP4663659A1.

Sequences of proteins named here, by UniProt entry; tags and fusion partners are left off. A change or cut given only in a name is not applied to a line headed by its entry.
UniProt P25942: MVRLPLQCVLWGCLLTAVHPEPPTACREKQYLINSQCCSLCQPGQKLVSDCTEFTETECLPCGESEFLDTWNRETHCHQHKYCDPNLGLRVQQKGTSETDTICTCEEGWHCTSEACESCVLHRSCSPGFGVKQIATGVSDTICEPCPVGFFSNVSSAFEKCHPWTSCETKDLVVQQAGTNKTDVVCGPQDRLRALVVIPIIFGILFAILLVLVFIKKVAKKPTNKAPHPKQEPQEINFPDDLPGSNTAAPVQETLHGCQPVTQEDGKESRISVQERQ

For the experiment, the target named is CD40 (as used in epitope binning / Octet BLI) (human) (UniProt P25942). The experiment can be described thus: epitope binning or Octet biolayer interferometry. (In BLI a coated tip is dipped into the sample, and binding shifts an interference pattern.)

No constants are given. Whether binding was seen depends on the method and setting. Some results given as binding are weak or reduced against the parent protein; the word gives no strength.

B1: CD40 VHH of FP1 (anti-human CD40 VHH) (VHH)
VHH: EVQLVESGGGVVQPGGSLRLSCAASGFTFSSATMGWFRQAPGKGLEWVAYISSVGGGTDYADSVKGRFTISRDNAKNTLYLQMNSLRAEDTAVYYCVTMRSIRNPDFGSRGQGTLVTVSS
On to B1, for which the binding entry was “binds”.
